Experimental data from article PMC12635413.
Results are given in words; binding and its absence hold for the method and conditions named. Binding seen in cells or lysates may run through a third protein. Some binding calls cover weakened binding; strength is not graded here.

Molecular target: insulin-like growth factor 2 mRNA-binding protein 1 (IGF2BP1) (human (endogenous in human SSC line)) (UniProt Q9NZI8)
Experiment: co-IP; human SSCs lysed in binding/washing buffer; supernatant incubated with antibody overnight at 4 °C; Protein A/G magnetic beads 2 h at room temperature; eluted in SDS-PAGE loading buffer; Western blot

- binding: binds
Substance: Opa interacting protein 5 (OIP5) (from UniProt O43482 1-229)
